The other results are listed elsewhere or left out.

The chains behind the UniProt entries cited, without tags or fusion partners. Where a name states a change or a piece, a line headed by the entry shows the natural chain unless it says otherwise.
UniProt Q12955: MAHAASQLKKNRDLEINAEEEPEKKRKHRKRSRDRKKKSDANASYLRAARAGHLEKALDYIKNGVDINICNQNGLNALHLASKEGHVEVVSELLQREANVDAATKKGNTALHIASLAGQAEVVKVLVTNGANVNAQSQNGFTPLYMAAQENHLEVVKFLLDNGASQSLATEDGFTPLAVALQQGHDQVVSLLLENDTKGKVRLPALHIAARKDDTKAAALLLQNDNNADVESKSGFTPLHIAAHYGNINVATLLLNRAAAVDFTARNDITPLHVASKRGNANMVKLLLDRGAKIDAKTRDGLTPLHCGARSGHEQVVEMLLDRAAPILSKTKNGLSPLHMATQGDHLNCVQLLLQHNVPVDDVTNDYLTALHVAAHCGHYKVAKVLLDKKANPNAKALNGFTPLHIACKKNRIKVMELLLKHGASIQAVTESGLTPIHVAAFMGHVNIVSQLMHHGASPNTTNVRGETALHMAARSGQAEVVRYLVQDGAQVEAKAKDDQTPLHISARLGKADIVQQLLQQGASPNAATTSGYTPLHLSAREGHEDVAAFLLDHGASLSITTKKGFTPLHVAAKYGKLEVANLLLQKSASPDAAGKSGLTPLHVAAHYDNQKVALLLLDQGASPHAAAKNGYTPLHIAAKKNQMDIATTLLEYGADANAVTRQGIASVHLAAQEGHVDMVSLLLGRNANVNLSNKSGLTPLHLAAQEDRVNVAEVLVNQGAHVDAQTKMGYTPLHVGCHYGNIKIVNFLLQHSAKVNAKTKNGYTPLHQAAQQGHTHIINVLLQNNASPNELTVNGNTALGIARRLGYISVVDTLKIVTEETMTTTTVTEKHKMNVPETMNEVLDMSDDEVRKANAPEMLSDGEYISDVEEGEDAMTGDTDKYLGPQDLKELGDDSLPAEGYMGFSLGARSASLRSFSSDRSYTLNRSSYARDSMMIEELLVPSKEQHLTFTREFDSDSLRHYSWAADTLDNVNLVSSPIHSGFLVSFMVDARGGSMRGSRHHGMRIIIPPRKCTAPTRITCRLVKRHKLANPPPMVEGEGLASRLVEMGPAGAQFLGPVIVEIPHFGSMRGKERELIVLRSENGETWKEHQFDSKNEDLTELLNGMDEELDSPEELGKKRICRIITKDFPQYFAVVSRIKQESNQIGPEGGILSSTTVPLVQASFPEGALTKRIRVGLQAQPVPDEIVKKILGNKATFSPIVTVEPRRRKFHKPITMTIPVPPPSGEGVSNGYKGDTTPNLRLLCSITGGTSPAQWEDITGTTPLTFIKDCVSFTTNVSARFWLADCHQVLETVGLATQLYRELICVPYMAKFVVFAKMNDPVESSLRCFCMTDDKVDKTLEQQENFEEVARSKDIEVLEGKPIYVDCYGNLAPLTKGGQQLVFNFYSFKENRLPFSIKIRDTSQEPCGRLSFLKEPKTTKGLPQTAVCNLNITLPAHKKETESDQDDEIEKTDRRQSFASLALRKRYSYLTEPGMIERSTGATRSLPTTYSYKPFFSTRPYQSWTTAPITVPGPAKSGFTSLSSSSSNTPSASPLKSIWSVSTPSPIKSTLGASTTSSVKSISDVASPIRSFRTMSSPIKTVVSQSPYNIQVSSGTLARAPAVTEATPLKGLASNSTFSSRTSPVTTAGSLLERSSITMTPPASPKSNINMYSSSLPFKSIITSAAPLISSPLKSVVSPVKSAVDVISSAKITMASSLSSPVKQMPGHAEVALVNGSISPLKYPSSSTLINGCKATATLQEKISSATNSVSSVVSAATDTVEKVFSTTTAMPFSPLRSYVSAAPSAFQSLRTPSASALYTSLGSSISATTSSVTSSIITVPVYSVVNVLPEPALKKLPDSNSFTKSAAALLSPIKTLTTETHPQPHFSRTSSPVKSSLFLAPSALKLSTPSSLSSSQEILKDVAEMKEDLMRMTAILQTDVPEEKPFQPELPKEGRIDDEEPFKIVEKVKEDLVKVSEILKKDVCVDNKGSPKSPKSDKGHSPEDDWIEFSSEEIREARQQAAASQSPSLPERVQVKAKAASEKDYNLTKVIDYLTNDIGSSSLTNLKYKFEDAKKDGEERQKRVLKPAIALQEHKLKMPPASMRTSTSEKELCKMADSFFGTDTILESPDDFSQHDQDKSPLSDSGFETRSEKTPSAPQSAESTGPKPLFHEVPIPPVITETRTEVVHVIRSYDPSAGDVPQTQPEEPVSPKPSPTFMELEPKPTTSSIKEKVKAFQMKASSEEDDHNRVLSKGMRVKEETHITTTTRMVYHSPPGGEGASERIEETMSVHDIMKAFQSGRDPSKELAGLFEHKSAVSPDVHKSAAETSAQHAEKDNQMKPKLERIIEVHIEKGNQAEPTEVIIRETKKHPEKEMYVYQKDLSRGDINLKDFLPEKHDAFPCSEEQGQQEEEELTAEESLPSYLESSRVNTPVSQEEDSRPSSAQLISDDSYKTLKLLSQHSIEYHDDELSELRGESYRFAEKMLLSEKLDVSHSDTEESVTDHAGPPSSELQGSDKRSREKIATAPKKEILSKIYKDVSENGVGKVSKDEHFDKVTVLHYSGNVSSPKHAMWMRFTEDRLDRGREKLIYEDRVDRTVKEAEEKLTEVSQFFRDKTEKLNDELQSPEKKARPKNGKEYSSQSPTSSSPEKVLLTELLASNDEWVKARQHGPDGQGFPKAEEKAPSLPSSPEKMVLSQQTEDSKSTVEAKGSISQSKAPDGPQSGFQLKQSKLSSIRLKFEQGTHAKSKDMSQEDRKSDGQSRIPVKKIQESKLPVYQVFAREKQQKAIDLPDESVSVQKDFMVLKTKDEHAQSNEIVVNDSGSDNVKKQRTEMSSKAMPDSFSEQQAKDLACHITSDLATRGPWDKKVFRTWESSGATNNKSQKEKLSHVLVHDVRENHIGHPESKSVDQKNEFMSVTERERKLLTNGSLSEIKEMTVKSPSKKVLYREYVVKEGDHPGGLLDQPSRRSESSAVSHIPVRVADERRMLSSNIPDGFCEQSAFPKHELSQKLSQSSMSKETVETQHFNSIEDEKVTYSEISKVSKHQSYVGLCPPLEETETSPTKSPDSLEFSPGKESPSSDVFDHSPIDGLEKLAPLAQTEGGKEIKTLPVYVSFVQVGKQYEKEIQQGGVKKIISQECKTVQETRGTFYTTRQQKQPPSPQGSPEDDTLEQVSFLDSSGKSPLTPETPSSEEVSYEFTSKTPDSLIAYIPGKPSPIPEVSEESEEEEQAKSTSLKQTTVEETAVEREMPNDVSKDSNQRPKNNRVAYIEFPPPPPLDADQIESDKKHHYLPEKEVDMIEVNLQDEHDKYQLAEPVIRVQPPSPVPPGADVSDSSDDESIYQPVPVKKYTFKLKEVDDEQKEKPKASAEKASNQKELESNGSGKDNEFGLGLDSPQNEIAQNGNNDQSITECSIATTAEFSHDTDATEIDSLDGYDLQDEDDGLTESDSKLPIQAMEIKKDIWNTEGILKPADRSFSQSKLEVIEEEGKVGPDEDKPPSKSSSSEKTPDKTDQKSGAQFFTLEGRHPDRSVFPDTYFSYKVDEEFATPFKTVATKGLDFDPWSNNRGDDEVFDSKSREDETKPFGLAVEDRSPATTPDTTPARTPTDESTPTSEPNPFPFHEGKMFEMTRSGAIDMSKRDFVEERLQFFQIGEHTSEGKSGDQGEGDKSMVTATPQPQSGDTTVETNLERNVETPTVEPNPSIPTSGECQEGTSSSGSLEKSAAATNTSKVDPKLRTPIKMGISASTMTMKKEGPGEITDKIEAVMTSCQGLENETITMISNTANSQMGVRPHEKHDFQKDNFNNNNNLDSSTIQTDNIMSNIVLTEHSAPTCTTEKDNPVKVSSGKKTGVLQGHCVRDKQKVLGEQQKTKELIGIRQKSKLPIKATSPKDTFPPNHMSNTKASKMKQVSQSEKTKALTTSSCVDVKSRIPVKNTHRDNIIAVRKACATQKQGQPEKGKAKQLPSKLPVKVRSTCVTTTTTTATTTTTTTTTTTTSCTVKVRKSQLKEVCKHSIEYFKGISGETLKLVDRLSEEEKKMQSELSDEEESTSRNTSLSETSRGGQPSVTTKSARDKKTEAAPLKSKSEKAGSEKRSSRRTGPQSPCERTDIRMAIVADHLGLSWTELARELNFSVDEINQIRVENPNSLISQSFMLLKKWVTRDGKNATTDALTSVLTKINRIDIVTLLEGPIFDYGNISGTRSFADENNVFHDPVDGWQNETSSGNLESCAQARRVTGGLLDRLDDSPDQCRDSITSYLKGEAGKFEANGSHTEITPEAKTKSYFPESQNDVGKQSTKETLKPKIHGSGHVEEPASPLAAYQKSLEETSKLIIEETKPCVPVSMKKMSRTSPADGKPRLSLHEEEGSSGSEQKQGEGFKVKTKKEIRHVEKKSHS
UniProt P39687: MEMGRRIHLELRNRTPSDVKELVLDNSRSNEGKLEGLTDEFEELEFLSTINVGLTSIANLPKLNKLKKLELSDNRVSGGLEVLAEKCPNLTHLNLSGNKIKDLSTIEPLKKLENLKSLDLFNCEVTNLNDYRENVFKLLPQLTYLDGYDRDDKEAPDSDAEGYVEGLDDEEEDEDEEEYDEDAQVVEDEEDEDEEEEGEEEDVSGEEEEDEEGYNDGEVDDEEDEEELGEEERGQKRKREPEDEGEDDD
UniProt P12429: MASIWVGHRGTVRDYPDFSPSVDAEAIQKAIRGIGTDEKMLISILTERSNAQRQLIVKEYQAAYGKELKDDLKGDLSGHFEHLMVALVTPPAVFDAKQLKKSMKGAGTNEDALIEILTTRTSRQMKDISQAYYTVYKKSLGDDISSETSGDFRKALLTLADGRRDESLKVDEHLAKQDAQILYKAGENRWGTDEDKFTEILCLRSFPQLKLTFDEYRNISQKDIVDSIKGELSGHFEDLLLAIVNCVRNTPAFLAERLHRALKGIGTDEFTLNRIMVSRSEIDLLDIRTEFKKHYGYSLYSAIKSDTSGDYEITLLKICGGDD
UniProt Q9UJX5, whole entry, looked up: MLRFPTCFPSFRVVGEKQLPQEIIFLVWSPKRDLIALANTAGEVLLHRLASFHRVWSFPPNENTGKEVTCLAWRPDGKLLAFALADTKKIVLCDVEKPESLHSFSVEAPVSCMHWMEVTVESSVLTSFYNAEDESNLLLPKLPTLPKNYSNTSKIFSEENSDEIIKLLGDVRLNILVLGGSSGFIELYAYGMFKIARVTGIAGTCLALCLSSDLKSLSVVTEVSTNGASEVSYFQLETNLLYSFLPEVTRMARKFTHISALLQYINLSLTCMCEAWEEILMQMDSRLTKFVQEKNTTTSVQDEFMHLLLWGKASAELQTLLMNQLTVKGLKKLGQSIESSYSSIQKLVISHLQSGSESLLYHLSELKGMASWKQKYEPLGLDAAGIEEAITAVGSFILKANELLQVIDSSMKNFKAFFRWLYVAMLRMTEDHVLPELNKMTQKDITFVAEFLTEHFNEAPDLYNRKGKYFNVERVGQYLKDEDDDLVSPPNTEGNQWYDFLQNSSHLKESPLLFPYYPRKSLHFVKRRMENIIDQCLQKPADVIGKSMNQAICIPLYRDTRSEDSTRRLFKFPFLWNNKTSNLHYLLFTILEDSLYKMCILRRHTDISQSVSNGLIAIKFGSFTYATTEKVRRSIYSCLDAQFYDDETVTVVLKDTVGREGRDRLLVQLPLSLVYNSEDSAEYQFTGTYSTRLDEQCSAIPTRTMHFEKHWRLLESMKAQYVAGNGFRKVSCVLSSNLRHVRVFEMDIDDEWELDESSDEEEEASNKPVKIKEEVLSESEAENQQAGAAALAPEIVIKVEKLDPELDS
UniProt Q9Y4X5: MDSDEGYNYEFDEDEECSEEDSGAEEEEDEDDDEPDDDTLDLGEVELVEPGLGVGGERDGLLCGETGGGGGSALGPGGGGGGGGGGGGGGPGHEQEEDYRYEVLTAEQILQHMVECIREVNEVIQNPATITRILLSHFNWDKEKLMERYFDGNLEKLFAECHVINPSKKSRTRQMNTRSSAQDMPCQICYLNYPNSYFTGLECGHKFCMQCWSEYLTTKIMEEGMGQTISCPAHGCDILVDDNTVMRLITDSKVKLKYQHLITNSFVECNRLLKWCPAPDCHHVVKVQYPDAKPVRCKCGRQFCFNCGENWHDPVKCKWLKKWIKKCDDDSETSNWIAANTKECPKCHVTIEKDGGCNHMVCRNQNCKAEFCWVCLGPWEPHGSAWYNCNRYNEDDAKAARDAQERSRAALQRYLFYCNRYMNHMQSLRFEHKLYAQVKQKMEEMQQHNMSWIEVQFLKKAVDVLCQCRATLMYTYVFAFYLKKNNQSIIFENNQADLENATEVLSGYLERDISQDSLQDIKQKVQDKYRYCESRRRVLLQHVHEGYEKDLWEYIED
UniProt Q9BUR5: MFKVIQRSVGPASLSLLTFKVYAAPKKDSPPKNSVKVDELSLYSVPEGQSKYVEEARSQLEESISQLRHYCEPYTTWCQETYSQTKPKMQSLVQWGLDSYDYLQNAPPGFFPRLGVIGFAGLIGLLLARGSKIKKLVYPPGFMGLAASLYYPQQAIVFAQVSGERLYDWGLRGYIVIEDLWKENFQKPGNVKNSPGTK

Compound in this test: c1cn2cc(-c3ccc4cn[nH]c4c3)nc(Nc3ccc(N4CCOCC4)cc3)c2n1 [entospletinib]
Description: log2 fold change, soluble protein after heating vs DMSO (PISA); higher = thermal stabilisation; K562 cells, 10 uM, 30 min; active = over 0.2 and 3.5 SD of the protein, either way, in both replicates (recomputed). In a few lines: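 Thermal stability values are relative to control samples and come from duplicates. They are expressed as log2 fold changes. For measurement, K562 cells (2×10^6 cells/mL) received 10 μM compound for 30 min, and aliquots were heated for 3 min over 48°C-58°C, pooled, and extracted at 4°C in PBS with 0.5% NP-40. Soluble protein, the supernatant after 21,000xg for 90 min, was quantified by TMTpro 16plex LC-MS/MS with equalised channel sums.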
ANAPC7 (UniProt Q9UJX3): the log2 fold change is inactive: 0.035. Under APOL2 (UniProt J3KQL8) stands inactive: -0.097; under AP4B1 (UniProt Q9Y6B7), inactive: 0.007. Next, APOBEC3F (UniProt Q8IUX4): inactive: 0.578; ARHGAP12 (UniProt Q8IWW6): inactive: -0.076.

As for ANO10 (UniProt Q9NW15), the log2 fold change is inactive: 0.004. As to ANP32B (UniProt Q92688), the log2 fold change is inactive: -0.022. As to AP1B1 isoform 3 (UniProt Q10567), the log2 fold change was inactive: -0.071. Under APC (UniProt P25054) stands inactive: 0.044. Consider ANO6 isoform 2 (UniProt Q4KMQ2), for which the log2 fold change was inactive: 0.109. Next, ANK3 (UniProt Q12955): inactive: 0.071.

For ANP32A (UniProt P39687), the log2 fold change is inactive: -0.1. As to APRT (UniProt P07741), the log2 fold change was inactive: -0.016.

As to AP1B1 (UniProt Q10567), the log2 fold change was inactive: 0.007.

As to ARHGAP6 (UniProt O43182), the log2 fold change was inactive: 0.028. Under ANXA3 (UniProt P12429) stands inactive: -0.062.

For ANAPC4 isoform 3 (UniProt Q9UJX5), the log2 fold change was inactive: 0.005. Next, ARIH1 (UniProt Q9Y4X5): inactive: -0.001; ARF1 (UniProt P84077): inactive: 0.022. With ANKS1A (UniProt Q92625), the log2 fold change is inactive: -0.098. Next, ANXA6 (UniProt P08133): inactive: 0.012; ANXA11 (UniProt P50995): inactive: -0.012. Next, APOO (UniProt Q9BUR5): inactive: 0.018.
